Data as given in PubChem BioAssay AID504764 (Drosophila RNAi Screening Center, 2011)
In all, the deposit lists about 22,000 reagents; below is an unselected part of those with a known target gene and a result. In the full data, 403 (1.9%) were called active. 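Unnormalised raw counts per well; ratio z-scores behind the hit calls and whether each hit raises or lowers signal are not deposited.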 Entries without a mark were called inactive. Not given: the amount of reagent.

Assay: 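Genes whose knock-down alters Notch-dependent transcription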 (primary screen)
Cell system: Drosophila Kc167 cells
Reagent: long dsRNA against Drosophila genes
Time to read-out: about 5 days (4 days dsRNA, then 24 h after transfection)
Treatment: transfection of constitutively active membrane-tethered Notch lacking the extracellular domain, read 24 h later
Detection: 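Firefly luciferase from an E(spl)m3 reporter with active Notch, plus control-promoter and uninduced reporter wells for normalisation; unnormalised counts, duplicate wells a and b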
Scale: induced reporter light, run 1, well a and induced reporter light, run 1, well b: higher = more light from the Notch target reporter with active Notch; control promoter light, run 1, well a and control promoter light, run 1, well b: higher = more light from the viral control promoter (cell number, transfection, viability); uninduced reporter light, run 1, well a: higher = more light from the Notch target reporter without active Notch
Rule for the call: 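Hit if the duplicate-averaged log2 ratio of induced to control-promoter light gives a plate-wise z beyond ±2, or induced to uninduced beyond ±1.8; weak-control or discordant-duplicate wells dropped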
Calls: active = modifier hit (raised or lowered Notch signal); inactive = not a hit

| gene | amplicon | induced reporter light, run 1, well a | induced reporter light, run 1, well b | control promoter light, run 1, well a | control promoter light, run 1, well b | uninduced reporter light, run 1, well a |
| --- | --- | --- | --- | --- | --- | --- |
| CG13110 (GeneID 34253) | DRSC02208 | 1.27e5 | 1.56e5 | 77365 | 1.10e5 | 16710 |
| ais (GeneID 39979) | DRSC10523 | 1.45e5 | 1.25e5 | 95330 | 86805 | 11115 |
| blw (GeneID 37617) | DRSC04675 | 90325 | 78150 | 99705 | 95020 | 5530 |
| Lk6 (GeneID 44672) | DRSC12867 | 1.55e5 | 1.63e5 | 1.26e5 | 1.33e5 | 15025 |
| Lk6 (GeneID 44672) | DRSC16728 | 1.60e5 | 1.88e5 | 1.09e5 | 87200 | 11285 |
| CG5989 (GeneID 38984) | DRSC10565 | 1.00e5 | 1.32e5 | 1.11e5 | 63195 | 12560 |
| wdp (GeneID 37548) | DRSC04367 | 1.81e5 | 1.91e5 | 1.46e5 | 1.54e5 | 15730 |
| CG13640 (GeneID 42967) | DRSC14639 | 1.27e5 | 1.29e5 | 1.61e5 | 1.50e5 | 9520 |
| CG14329 (GeneID 42116) | DRSC14808 | 2.11e5 | 2.23e5 | 2.44e5 | 2.46e5 | 19535 |
| Top1 (GeneID 32458) | DRSC20295 | 70590 | 71885 | 92680 | 1.04e5 | 11015 |
| Or88a (GeneID 41715) | DRSC16770 | 2.06e5 | 2.49e5 | 2.03e5 | 1.85e5 | 19005 |
| mRpL38 (GeneID 32375) | DRSC19734 | 81930 | 73315 | 91160 | 95405 | 12005 |
| Rab2 (GeneID 35577) | DRSC05017 | 1.90e5 | 1.82e5 | 1.95e5 | 1.93e5 | 14755 |
| CG34263 (GeneID 5740488) | DRSC07866 | 1.61e5 | 1.54e5 | 1.51e5 | 1.63e5 | 15375 |
| IPIP (GeneID 33849) | DRSC02164 | 89295 | 1.02e5 | 1.00e5 | 84925 | 6930 |
| CG2256 (GeneID 31727) | DRSC18220 | 1.61e5 | 1.52e5 | 2.62e5 | 2.94e5 | 11188 |
| Mis12 (GeneID 38762) | DRSC10299 | 3.04e5 | 1.92e5 | 2.21e5 | 2.26e5 | 11405 |
| CG15387 (GeneID 33403) | DRSC00401 | 1.43e5 | 1.73e5 | 1.35e5 | 80315 | 10715 |
| CG3679 (GeneID 32591) | DRSC19346 | 1.79e5 | 1.79e5 | 2.07e5 | 1.96e5 | 13765 |
| RpS5b (GeneID 41807) | DRSC16173 | 1.98e5 | 2.27e5 | 2.08e5 | 1.95e5 | 16478 |
| icln (GeneID 36997) | DRSC07630 | 1.24e5 | 93940 | 99625 | 1.25e5 | 11255 |
| CG1894 (GeneID 43378) | DRSC15396 | 1.40e5 | 1.15e5 | 1.70e5 | 1.78e5 | 9450 |
| CG31534 (retired record) (GeneID 40585) | DRSC12141 | 1.03e5 | 1.41e5 | 73630 | 94020 | 10540 |
| CG31534 (retired record) (GeneID 40585) | DRSC12289 | 34710 | 38560 | 43610 | 35865 | 3010 |
| CG15145 (GeneID 35064) | DRSC02446 | 1.35e5 | 1.48e5 | 1.89e5 | 2.15e5 | 12978 |
| Orai (GeneID 37040) | DRSC05684 | 1.05e5 | 1.04e5 | 1.50e5 | 1.04e5 | 7750 |
| Hsp60B (GeneID 48572) | DRSC00542 | 2.14e5 | 2.43e5 | 2.79e5 | 3.17e5 | 18525 |
| CG6357 (GeneID 36532) | DRSC06979 | 1.61e5 | 1.59e5 | 1.62e5 | 1.53e5 | 13640 |
| alpha-Catr (GeneID 49713) | DRSC04669 | 1.97e5 | 1.86e5 | 1.77e5 | 1.52e5 | 13380 |
| CG4962 (GeneID 39793) | DRSC10464 | 1.56e5 | 2.20e5 | 2.36e5 | 2.07e5 | 10855 |
| CG11596 (GeneID 31158) | DRSC18540 | 1.73e5 | 2.35e5 | 2.38e5 | 2.28e5 | 14842 |
| Rpn6 (GeneID 36638) | DRSC07541 | 5860 | 5885 | 4365 | 4410 | 470 |
| CG13712 (GeneID 38574) | DRSC08321 | 1.12e5 | 93650 | 1.39e5 | 1.10e5 | 5582 |
| CG14370 (GeneID 41659) | DRSC14832 | 2.12e5 | 2.19e5 | 2.28e5 | 2.40e5 | 17875 |

An excerpt of the results above:
| gene | amplicon | induced reporter light, run 1, well a | induced reporter light, run 1, well b | control promoter light, run 1, well a | control promoter light, run 1, well b | uninduced reporter light, run 1, well a |
| --- | --- | --- | --- | --- | --- | --- |
| CG13110 (GeneID 34253) | DRSC02208 | 1.27e5 | 1.56e5 | 77365 | 1.10e5 | 16710 |
| ais (GeneID 39979) | DRSC10523 | 1.45e5 | 1.25e5 | 95330 | 86805 | 11115 |
| blw (GeneID 37617) | DRSC04675 | 90325 | 78150 | 99705 | 95020 | 5530 |
| Lk6 (GeneID 44672) | DRSC12867 | 1.55e5 | 1.63e5 | 1.26e5 | 1.33e5 | 15025 |
| Lk6 (GeneID 44672) | DRSC16728 | 1.60e5 | 1.88e5 | 1.09e5 | 87200 | 11285 |
| CG5989 (GeneID 38984) | DRSC10565 | 1.00e5 | 1.32e5 | 1.11e5 | 63195 | 12560 |
